Measured values taken from paper PMC6899445.
These are yes or no findings as the source states them, for the method shown. In cells and extracts the contact can be indirect. Binding can be weak; no strength is given. For part of these data: Tags and fused reporters may be left off the sequences shown.

Sequences of proteins named here, by UniProt entry; tags and fusion partners are left off. Residues count along the entry.
UniProt Q62765, residues 46-843: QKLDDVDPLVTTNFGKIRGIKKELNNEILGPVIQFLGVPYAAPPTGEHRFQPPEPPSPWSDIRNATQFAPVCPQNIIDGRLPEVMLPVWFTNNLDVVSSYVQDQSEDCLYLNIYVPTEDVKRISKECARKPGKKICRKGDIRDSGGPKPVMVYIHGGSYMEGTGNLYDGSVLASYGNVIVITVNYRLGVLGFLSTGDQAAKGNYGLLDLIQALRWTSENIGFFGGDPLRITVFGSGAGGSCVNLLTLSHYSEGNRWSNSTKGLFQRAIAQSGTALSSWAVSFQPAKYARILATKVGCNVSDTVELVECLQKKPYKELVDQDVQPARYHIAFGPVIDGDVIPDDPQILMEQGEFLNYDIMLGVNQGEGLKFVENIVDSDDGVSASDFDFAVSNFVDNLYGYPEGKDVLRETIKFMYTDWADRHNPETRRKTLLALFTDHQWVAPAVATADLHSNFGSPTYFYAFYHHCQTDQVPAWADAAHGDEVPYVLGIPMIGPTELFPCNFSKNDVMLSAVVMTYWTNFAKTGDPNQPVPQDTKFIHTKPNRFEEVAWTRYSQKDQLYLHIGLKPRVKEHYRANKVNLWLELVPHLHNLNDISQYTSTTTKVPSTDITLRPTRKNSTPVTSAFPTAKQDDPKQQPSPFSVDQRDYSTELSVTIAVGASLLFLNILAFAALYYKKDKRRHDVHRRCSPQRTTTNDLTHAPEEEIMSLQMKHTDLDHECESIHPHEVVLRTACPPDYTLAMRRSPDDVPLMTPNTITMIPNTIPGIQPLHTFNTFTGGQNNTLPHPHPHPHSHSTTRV

Experiments:
[1] = molecular target: T1, full-length TSPAN5-GFP, wild-type (human) (UniProt P62079); assay: co-IP; HEK293 cells transfected with TSPAN5-GFP and HA-tagged NLG1 constructs, lysed in RIPA buffer; GFP-Trap magnetic beads 1 h at 4 °C; blots
T1 sequence: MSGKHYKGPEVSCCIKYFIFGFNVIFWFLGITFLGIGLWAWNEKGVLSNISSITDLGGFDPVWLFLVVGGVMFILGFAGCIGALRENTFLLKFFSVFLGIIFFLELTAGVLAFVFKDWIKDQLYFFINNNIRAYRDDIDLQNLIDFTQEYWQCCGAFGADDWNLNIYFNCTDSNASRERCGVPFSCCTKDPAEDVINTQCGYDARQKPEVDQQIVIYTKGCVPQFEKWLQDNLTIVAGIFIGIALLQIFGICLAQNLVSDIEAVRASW

[2] = molecular target: GST fused to the C terminus (Ct) of TSPAN5 (human) (UniProt P62079); assay: pull-down; GST fusion proteins on glutathione Sepharose beads incubated 3 h at 4 °C with adult rat hippocampus and cortex lysates in RIPA buffer; blots; only the target purified
[3] = molecular target: GST fused to the large extracellular loop (LEL) of TSPAN5 (human) (UniProt P62079); assay: as above

| Substance | binding [1] | binding [2] | binding [3] |
| --- | --- | --- | --- |
| HA-tagged NLG1 ΔC mutant (domain or fragment) | binds | – | – |
| neuroligin-1 (from UniProt Q62765 46-843) | – | binds weakly | binds |
